Experimental data taken from publication PMC12411612.
The exact form of at least one protein or probe is not confirmed. At least one result comes from cells or an extract, where the contact may be indirect. Weaker means in comparison with the reference protein, sequence or condition of that experiment. For part of these data: At least one verdict was read from the data and is not stated in words by the source.

How the values were obtained:
[1] = tested on: Myocardin (Flag-tagged, adenovirus-expressed in T/G HA-VSMC nuclear extract) + Serum response factor (endogenous, T/G HA-VSMC nuclear extract); experiment: EMSA; conditions: EMSA: 20 ug nuclear extract, 50 fM biotin probe, 10 mM Tris pH 7.6, 50 mM KCl, 5 mM MgCl2, 1 mM EDTA, 2.5% glycerol, 0.05% NP-40, 50 ng poly(dI-dC), 30 min, protein in an extract, protein details: Flag, label: 5' biotin
[2] = tested on: Myocardin (endogenous, T/G HA-VSMC nuclear extract) + Serum response factor (endogenous, T/G HA-VSMC nuclear extract); experiment: EMSA; conditions: nuclear extract preincubated with active DNA/NAD+; EMSA: 20 ug nuclear extract, 50 fM biotin probe, 10 mM Tris pH 7.6, 50 mM KCl, 5 mM MgCl2, 1 mM EDTA, 2.5% glycerol, 0.05% NP-40, 50 ng poly(dI-dC), 30 min; protein in an extract; label: 5' biotin

“GAGGTCCCTATATGGTTGTG (double strand) [αSMA-CArG probe]”: binds more weakly ([1]; nuclear extract preincubated with active DNA and NAD+ (10-200 uM), poly(ADP-ribosyl)ated myocardin/SRF); binds ([1]; nuclear extract with active DNA, no NAD+ (0 uM)); binds more weakly [2].
